Experimental data as given in patent US11752115B2, “PPAR-alpha agonist treatment of neuropsychiatric disorders” (THE BOARD OF TRUSTEES OF THE UNIVERSITY OF ILLINOIS, priority 2017, dated 2023).
Values joined by “and” are separate entries in the source; they are usually repeats but may differ in a detail not shown here. Equal entries are not always repeated. Where two headings read alike, the source gives them in different places.

System: early and late adolescent SI mice
Conditions: for EC50 dose, reduction of aggression: i.p., 60 min before test
[1] = 0.375 mg, reduction of attacks less than 30% vs basal

CNCC[C@H](Oc1ccc(C(F)(F)F)cc1)c1ccccc1 [S-FLX, S-fluoxetine]
“Non-responders” Early SI mice (%) [1]: 64.3%
“Non-responders” Late SI mice (%) [1]: 64.3%
“Non-responders” Early SI mice (%) (0.75 mg): 53.3%
“Non-responders” Late SI mice (%) (0.75 mg): 23.1%
“Non-responders” Early SI mice (%) (1.5 mg): 22.22% and 22.2%
“Non-responders” Late SI mice (%) (1.5 mg): 11.64% and 11.8%
potency in late than early SI mice (1.5 mg/kg, late vs early SI mice): +316%
EC50 dose, reduction of aggression (early adolescent SI mice (PND 21)): > 1.5 mg/kg
EC50 dose, reduction of aggression (late adolescent SI mice (PND 45)): 0.85 mg/kg
